Reference: article PMC11255314
These are yes or no findings as the source states them, for the method shown. In cells and extracts the contact can be indirect. These calls come from enrichment with a bait or labelling near it, and not all partners need be listed.

By UniProt entry, the sequences of proteins in these tests, tags left out.
UniProt Q9C0C2: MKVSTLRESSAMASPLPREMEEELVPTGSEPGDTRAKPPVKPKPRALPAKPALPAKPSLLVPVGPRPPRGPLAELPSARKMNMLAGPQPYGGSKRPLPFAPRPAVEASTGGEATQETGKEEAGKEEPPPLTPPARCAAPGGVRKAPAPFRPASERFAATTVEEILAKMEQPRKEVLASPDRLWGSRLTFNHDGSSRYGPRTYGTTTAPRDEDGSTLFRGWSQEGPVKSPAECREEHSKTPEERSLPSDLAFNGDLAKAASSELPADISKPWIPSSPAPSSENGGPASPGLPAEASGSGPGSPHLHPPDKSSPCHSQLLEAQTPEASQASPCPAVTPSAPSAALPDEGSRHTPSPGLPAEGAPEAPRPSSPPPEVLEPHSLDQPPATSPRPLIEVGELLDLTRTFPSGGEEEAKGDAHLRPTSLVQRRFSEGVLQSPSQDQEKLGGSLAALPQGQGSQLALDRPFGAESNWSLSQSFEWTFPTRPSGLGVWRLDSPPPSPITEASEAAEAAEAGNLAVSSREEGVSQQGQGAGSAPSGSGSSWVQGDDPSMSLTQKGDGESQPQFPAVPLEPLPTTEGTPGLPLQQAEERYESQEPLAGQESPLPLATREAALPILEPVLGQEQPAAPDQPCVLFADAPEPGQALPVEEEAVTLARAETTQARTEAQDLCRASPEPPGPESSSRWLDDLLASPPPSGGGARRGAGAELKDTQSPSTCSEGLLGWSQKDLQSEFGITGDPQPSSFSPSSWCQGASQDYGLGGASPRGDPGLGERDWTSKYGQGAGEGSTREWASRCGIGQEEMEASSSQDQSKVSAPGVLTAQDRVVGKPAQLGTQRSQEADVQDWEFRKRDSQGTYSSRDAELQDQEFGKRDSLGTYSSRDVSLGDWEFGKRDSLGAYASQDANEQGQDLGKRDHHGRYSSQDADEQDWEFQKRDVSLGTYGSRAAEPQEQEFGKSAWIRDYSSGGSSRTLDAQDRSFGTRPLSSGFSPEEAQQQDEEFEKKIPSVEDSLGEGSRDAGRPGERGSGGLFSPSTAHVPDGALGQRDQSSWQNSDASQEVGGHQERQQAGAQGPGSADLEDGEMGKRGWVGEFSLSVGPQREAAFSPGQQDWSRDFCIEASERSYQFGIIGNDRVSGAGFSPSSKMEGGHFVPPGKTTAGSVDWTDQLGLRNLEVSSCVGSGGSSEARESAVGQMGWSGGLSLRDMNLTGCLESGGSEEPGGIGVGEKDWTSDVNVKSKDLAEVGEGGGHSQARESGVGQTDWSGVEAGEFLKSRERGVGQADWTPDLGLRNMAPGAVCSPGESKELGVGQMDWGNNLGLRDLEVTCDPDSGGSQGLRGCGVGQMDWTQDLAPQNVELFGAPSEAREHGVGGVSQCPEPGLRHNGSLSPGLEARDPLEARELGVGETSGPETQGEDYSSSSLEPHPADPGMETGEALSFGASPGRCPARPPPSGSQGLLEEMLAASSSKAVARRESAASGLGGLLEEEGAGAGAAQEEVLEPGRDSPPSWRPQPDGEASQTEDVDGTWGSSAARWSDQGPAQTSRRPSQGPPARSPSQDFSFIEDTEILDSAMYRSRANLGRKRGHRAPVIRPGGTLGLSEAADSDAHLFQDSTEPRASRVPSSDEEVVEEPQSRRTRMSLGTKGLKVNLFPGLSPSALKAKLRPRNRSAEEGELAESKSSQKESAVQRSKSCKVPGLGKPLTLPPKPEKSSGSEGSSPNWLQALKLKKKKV
UniProt P19474: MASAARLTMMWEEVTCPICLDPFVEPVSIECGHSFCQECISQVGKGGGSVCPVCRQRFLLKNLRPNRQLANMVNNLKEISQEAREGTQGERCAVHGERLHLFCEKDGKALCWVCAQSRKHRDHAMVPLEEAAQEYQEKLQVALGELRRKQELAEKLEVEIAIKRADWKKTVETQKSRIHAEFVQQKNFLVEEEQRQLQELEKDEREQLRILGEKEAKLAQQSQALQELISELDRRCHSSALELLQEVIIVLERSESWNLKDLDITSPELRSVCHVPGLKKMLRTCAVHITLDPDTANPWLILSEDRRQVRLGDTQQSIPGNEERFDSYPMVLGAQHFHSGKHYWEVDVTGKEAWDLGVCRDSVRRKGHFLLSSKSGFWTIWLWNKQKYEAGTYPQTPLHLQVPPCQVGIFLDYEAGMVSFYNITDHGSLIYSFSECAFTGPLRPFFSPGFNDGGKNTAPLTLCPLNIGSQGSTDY

Target: Flag-TNKS1BP1 (tankyrasel binding protein 1) (UniProt Q9C0C2)
Assay: affinity purification with mass spectrometry; HEK293T cells stably expressing Flag-TNKS1BP1; anti-Flag IP products, MS analysis

binding: binds
Substance: TRIM21 (tripartite motif containing 21) in HEK293T lysate (from UniProt P19474 1-475)
